Reference: publication doi:10.1101/2021.07.15.452545
No constants are given. Whether binding was seen depends on the method and setting. Binding seen in cells or lysates may run through a third protein. These calls come from enrichment with a bait or labelling near it, and not all partners need be listed.

Sequences of proteins named here, by UniProt entry; tags and fusion partners are left off. A change or cut given only in a name is not applied to a line headed by its entry.
UniProt P63096: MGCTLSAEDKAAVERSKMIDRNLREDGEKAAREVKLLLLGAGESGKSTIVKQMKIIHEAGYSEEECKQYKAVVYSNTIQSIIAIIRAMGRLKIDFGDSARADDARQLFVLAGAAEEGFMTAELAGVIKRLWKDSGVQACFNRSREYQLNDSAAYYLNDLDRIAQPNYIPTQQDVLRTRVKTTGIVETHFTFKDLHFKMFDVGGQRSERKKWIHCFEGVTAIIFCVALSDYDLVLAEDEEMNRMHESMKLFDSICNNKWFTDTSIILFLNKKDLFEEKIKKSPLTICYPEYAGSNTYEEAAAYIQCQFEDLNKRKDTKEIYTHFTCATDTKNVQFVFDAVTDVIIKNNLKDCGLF
UniProt P08670: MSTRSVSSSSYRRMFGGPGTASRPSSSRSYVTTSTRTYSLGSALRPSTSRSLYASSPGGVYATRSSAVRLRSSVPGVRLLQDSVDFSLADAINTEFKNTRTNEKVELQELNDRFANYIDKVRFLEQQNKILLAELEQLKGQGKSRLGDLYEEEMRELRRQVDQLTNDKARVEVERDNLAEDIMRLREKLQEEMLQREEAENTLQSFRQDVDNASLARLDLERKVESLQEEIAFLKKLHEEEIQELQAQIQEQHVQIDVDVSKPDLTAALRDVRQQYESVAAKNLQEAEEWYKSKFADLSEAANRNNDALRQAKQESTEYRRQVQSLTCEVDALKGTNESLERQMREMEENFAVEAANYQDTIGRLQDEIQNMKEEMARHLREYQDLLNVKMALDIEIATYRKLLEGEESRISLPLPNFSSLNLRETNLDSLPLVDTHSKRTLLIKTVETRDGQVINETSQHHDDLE
UniProt P18850: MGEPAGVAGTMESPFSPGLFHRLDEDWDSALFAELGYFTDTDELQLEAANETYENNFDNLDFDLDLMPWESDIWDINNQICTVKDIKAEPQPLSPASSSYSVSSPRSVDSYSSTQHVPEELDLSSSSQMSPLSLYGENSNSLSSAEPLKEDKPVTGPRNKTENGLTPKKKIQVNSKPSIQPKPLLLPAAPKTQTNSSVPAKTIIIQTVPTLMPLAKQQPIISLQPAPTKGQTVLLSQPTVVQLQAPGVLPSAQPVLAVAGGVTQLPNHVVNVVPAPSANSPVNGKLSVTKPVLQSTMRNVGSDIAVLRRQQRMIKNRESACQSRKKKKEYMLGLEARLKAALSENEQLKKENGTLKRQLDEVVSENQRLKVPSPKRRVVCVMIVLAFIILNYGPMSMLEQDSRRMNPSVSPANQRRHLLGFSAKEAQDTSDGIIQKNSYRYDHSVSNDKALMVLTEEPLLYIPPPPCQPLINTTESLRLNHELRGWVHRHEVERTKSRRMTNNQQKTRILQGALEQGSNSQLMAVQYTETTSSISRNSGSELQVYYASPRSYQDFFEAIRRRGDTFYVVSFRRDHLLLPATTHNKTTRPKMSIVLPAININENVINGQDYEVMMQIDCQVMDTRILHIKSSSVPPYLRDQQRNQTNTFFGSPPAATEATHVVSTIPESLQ
UniProt Q14247: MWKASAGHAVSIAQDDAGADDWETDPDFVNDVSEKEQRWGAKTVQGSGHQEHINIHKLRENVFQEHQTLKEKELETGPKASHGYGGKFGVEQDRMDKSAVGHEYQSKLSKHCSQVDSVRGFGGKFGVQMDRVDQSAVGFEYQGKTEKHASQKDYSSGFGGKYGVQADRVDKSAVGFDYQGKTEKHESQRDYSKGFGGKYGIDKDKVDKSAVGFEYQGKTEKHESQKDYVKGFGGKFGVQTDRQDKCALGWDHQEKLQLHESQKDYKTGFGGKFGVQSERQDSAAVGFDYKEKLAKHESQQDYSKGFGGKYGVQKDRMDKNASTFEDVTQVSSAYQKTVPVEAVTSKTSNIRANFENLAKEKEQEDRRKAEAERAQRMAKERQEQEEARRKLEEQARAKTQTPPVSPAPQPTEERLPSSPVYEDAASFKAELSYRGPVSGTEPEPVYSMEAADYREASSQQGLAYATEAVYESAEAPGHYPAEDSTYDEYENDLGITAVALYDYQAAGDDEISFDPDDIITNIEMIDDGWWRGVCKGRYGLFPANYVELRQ
UniProt O15085: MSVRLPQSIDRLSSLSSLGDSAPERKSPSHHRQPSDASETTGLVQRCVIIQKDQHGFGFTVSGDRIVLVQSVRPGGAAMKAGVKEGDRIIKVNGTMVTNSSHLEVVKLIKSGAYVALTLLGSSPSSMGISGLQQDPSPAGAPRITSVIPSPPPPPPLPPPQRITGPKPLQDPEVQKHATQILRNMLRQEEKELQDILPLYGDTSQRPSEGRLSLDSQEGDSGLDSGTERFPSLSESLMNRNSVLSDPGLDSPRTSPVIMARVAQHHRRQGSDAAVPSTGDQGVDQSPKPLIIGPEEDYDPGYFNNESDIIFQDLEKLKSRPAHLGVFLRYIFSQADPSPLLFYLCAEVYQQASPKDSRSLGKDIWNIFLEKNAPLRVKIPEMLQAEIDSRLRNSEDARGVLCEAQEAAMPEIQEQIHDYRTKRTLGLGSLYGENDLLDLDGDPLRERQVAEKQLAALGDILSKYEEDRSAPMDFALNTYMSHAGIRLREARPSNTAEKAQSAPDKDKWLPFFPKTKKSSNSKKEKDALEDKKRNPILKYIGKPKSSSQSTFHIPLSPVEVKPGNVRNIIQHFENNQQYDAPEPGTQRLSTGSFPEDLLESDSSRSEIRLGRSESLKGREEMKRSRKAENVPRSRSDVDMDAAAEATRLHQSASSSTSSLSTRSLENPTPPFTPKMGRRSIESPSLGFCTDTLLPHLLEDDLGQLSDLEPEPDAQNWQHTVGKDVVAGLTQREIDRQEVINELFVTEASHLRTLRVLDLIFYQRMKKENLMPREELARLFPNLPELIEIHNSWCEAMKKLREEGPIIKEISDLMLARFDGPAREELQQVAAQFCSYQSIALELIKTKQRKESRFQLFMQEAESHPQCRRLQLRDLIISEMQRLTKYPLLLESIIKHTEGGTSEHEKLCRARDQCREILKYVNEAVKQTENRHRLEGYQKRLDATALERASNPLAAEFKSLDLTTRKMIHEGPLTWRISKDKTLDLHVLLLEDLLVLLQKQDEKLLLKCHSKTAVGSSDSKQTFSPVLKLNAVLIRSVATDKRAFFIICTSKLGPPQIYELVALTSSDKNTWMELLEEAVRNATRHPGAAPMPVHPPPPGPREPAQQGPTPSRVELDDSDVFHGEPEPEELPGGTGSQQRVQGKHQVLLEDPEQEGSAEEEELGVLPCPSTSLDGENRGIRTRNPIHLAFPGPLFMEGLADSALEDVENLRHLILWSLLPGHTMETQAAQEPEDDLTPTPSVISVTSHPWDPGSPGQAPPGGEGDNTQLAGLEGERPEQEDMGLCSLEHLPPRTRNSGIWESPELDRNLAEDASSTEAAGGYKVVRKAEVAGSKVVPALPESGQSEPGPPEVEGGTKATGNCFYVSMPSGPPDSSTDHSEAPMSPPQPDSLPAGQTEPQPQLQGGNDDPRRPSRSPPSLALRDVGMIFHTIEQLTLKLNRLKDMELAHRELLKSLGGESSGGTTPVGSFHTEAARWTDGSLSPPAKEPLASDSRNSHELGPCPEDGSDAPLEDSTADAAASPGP
UniProt Q9NPQ8: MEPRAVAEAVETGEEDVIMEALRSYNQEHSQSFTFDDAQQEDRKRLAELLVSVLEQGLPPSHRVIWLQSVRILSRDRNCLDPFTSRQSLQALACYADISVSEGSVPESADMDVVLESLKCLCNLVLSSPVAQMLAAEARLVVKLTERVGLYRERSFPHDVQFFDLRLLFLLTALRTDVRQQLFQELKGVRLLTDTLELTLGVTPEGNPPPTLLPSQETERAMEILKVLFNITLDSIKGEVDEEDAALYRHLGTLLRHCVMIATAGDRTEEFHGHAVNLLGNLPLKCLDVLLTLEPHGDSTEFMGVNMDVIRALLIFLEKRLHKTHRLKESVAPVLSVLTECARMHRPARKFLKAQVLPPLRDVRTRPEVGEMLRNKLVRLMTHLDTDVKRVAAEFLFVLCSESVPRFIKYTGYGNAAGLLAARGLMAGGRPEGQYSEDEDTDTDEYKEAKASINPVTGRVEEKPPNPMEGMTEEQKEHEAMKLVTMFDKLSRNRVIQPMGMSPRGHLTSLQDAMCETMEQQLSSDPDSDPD

The molecules below were run against BioID2-Gαi1-Q204L (human) (UniProt P63096) (assay: proximity labelling).

Molecule	binding
PSPC1 (Paraspeckle Component 1) (protein, UniProt Q8WXF1 1-523) MMLRGNLKQVRIEKNPARLRALESAVGESEPAAAAAMALALAGEPAPPAPAPPEDHPDEEMGFTIDIKSFLKPGEKTYTQRCRLFVGNLPTDITEEDFKRLFERYGEPSEVFINRDRGFGFIRLESRTLAEIAKAELDGTILKSRPLRIRFATHGAALTVKNLSPVVSNELLEQAFSQFGPVEKAVVVVDDRGRATGKGFVEFAAKPPARKALERCGDGAFLLTTTPRPVIVEPMEQFDDEDGLPEKLMQKTQQYHKEREQPPRFAQPGTFEFEYASRWKALDEMEKQQREQVDRNIREAKEKLEAEMEAARHEHQLMLMRQDLMRRQEELRRLEELRNQELQKRKQIQLRHEEEHRRREEEMIRHREQEELRRQQEGFKPNYMENREQEMRMGDMGPRGAINMGDAFSPAPAGNQGPPPMMGMNMNNRATIPGPPMGPGPAMGPEGAANMGTPMMPDNGAVHNDRFPQGPPSQMGSPMGSRTGSETPQAPMSGVGPVSGGPGGFGRGSQGGNFEGPNKRRRY	binds
p54 (Nuclear RNA-Binding Protein, 54-KD or NONO) (protein, UniProt Q15233 1-471) MQSNKTFNLEKQNHTPRKHHQHHHQQQHHQQQQQQPPPPPIPANGQQASSQNEGLTIDLKNFRKPGEKTFTQRSRLFVGNLPPDITEEEMRKLFEKYGKAGEVFIHKDKGFGFIRLETRTLAEIAKVELDNMPLRGKQLRVRFACHSASLTVRNLPQYVSNELLEEAFSVFGQVERAVVIVDDRGRPSGKGIVEFSGKPAARKALDRCSEGSFLLTTFPRPVTVEPMDQLDDEEGLPEKLVIKNQQFHKEREQPPRFAQPGSFEYEYAMRWKALIEMEKQQQDQVDRNIKEAREKLEMEMEAARHEHQVMLMRQDLMRRQEELRRMEELHNQEVQKRKQLELRQEEERRRREEEMRRQQEEMMRRQQEGFKGTFPDAREQEIRMGQMAMGGAMGINNRGAMPPAPVPAGTPAPPGPATMMPDGTLGLTPPTTERFGQAATMEGIGAIGGTPPAFNRAAPGAEFAPNKRRRY	binds
SORBS (Sorbin and SH3 domain-containing protein 2 or ArgBP2) (protein, UniProt O94875 1-1100) MSYYQRPFSPSAYSLPASLNSSIVMQHGTSLDSTDTYPQHAQSLDGTTSSSIPLYRSSEEEKRVTVIKAPHYPGIGPVDESGIPTAIRTTVDRPKDWYKTMFKQIHMVHKPDDDTDMYNTPYTYNAGLYNPPYSAQSHPAAKTQTYRPLSKSHSDNSPNAFKDASSPVPPPHVPPPVPPLRPRDRSSTEKHDWDPPDRKVDTRKFRSEPRSIFEYEPGKSSILQHERPASLYQSSIDRSLERPMSSASMASDFRKRRKSEPAVGPPRGLGDQSASRTSPGRVDLPGSSTTLTKSFTSSSPSSPSRAKGGDDSKICPSLCSYSGLNGNPSSELDYCSTYRQHLDVPRDSPRAISFKNGWQMARQNAEIWSSTEETVSPKIKSRSCDDLLNDDCDSFPDPKVKSESMGSLLCEEDSKESCPMAWGSPYVPEVRSNGRSRIRHRSARNAPGFLKMYKKMHRINRKDLMNSEVICSVKSRILQYESEQQHKDLLRAWSQCSTEEVPRDMVPTRISEFEKLIQKSKSMPNLGDDMLSPVTLEPPQNGLCPKRRFSIEYLLEEENQSGPPARGRRGCQSNALVPIHIEVTSDEQPRAHVEFSDSDQDGVVSDHSDYIHLEGSSFCSESDFDHFSFTSSESFYGSSHHHHHHHHHHHRHLISSCKGRCPASYTRFTTMLKHERARHENTEEPRRQEMDPGLSKLAFLVSPVPFRRKKNSAPKKQTEKAKCKASVFEALDSALKDICDQIKAEKKRGSLPDNSILHRLISELLPDVPERNSSLRALRRSPLHQPLHPLPPDGAIHCPPYQNDCGRMPRSASFQDVDTANSSCHHQDRGGALQDRESPRSYSSTLTDMGRSAPRERRGTPEKEKLPAKAVYDFKAQTSKELSFKKGDTVYILRKIDQNWYEGEHHGRVGIFPISYVEKLTPPEKAQPARPPPPAQPGEIGEAIAKYNFNADTNVELSLRKGDRVILLKRVDQNWYEGKIPGTNRQGIFPVSYVEVVKKNTKGAEDYPDPPIPHSYSSDRIHSLSSNKPQRPVFTHENIQGGGEPFQALYNYTPRNEDELELRESDVIDVMEKCDDGWFVGTSRRTKFFGTFPGNYVKRL	binds
GOLGA5 (Golgin A5) (protein, UniProt Q8TBA6 1-731) MSWFVDLAGKAEDLLNRVDQGAATALSRKDNASNIYSKNTDYTELHQQNTDLIYQTGPKSTYISSAADNIRNQKATILAGTANVKVGSRTPVEASHPVENASVPRPSSHFVRRKKSEPDDELLFDFLNSSQKEPTGRVEIRKEKGKTPVFQSSQTSSVSSVNPSVTTIKTIEENSFGSQTHEAASNSDSSHEGQEESSKENVSSNAACPDHTPTPNDDGKSHELSNLRLENQLLRNEVQSLNQEMASLLQRSKETQEELNKARARVEKWNADHSKSDRMTRGLRAQVDDLTEAVAAKDSQLAVLKVRLQEADQLLSTRTEALEALQSEKSRIMQDQSEGNSLQNQALQTFQERLHEADATLKREQESYKQMQSEFAARLNKVEMERQNLAEAITLAERKYSDEKKRVDELQQQVKLYKLNLESSKQELIDYKQKATRILQSKEKLINSLKEGSGFEGLDSSTASSMELEELRHEKEMQREEIQKLMGQIHQLRSELQDMEAQQVNEAESAREQLQDLHDQIAGQKASKQELETELERLKQEFHYIEEDLYRTKNTLQSRIKDRDEEIQKLRNQLTNKTLSNSSQSELENRLHQLTETLIQKQTMLESLSTEKNSLVFQLERLEQQMNSASGSSSNGSSINMSGIDNGEGTRLRNVPVLFNDTETNLAGMYGKVRKAASSIDQFSIRLGIFLRRYPIARVFVIIYMALLHLWVMIVLLTYTPEMHHDQPYGK	binds
GPRIN1 (protein, UniProt Q7Z2K8 1-1008) MDTAEDPAWLQLLQKDSSPPGPRPTAFFCPQDGSLGAGSSAMRDYCPSQQKASPAPPRHTPDQSPGMESRHRSPSGAGEGASCSDGPRGSLACPSPTCFSPQESPSKETLEAHGASISGTPEATTSGKPEPVSSVKTEPKSSDDRNPMFLEKMDFKSSKQADSTSIGKEDPGSSRKADPMFTGKAEPEILGKGDPVAPGRMDPMTVRKEDLGSLGKVDPLCSSKTYTVSPRKEDPGSLRKVDPVSSDKVDPVFPRKEEPRYSGKEHPVSSEKVAPTSAEKVDLVLSGKRDPGPSGKADPMPLESMDSASTGKTEPGLLGKLIPGSSGKNGPVSSGTGAPGSLGRLDPTCLGMADPASVGNVETVPATKEDSRFLGKMDPASSGEGRPVSGHTDTTASAKTDLTSLKNVDPMSSGKVDPVSLGKMDPMCSGKPELLSPGQAERVSVGKAGTVSPGKEDPVSSRREDPISAGSRKTSSEKVNPESSGKTNPVSSGPGDPRSLGTAGPPSAVKAEPATGGKGDPLSSEKAGLVASGKAAPTASGKAEPLAVGKEDPVSKGKADAGPSGQGDSVSIGKVVSTPGKTVPVPSGKVDPVSLGKAEAIPEGKVGSLPLEKGSPVTTTKADPRASGKAQPQSGGKAETKLPGQEGAAAPGEAGAVCLKKETPQASEKVDPGSCRKAEPLASGKGEPVSLGKADSAPSRKTESPSLGKVVPLSLEKTKPSSSSRQLDRKALGSARSPEGARGSEGRVEPKAEPVSSTEASSLGQKDLEAAGAERSPCPEAAAPPPGPRTRDNFTKAPSWEASAPPPPREDAGTQAGAQACVSVAVSPMSPQDGAGGSAFSFQAAPRAPSPPSRRDAGLQVSLGAAETRSVATGPMTPQAAAPPAFPEVRVRPGSALAAAVAPPEPAEPVRDVSWDEKGMTWEVYGAAMEVEVLGMAIQKHLERQIEEHGRQGAPAPPPAARAGPGRSGSVRTAPPDGAAKRPPGLFRALLQSVRRPRCCSRAGPTAE	binds
RASA3 (protein, UniProt Q14644 1-834) MAVEDEGLRVFQSVKIKIGEAKNLPSYPGPSKMRDCYCTVNLDQEEVFRTKIVEKSLCPFYGEDFYCEIPRSFRHLSFYIFDRDVFRRDSIIGKVAIQKEDLQKYHNRDTWFQLQHVDADSEVQGKVHLELRLSEVITDTGVVCHKLATRIVECQGLPIVNGQCDPYATVTLAGPFRSEAKKTKVKRKTNNPQFDEVFYFEVTRPCSYSKKSHFDFEEEDVDKLEIRVDLWNASNLKFGDEFLGELRIPLKVLRQSSSYEAWYFLQPRDNGSKSLKPDDLGSLRLNVVYTEDHVFSSDYYSPLRDLLLKSADVEPVSASAAHILGEVCREKQEAAVPLVRLFLHYGRVVPFISAIASAEVKRTQDPNTIFRGNSLASKCIDETMKLAGMHYLHVTLKPAIEEICQSHKPCEIDPVKLKDGENLENNMENLRQYVDRVFHAITESGVSCPTVMCDIFFSLREAAAKRFQDDPDVRYTAVSSFIFLRFFAPAILSPNLFQLTPHHTDPQTSRTLTLISKTVQTLGSLSKSKSASFKESYMATFYEFFNEQKYADAVKNFLDLISSSGRRDPKSVEQPIVLKEGFMIKRAQGRKRFGMKNFKKRWFRLTNHEFTYHKSKGDQPLYSIPIENILAVEKLEEESFKMKNMFQVIQPERALYIQANNCVEAKDWIDILTKVSQCNQKRLTVYHPSAYLSGHWLCCRAPSDSAPGCSPCTGGLPANIQLDIDGDRETERIYSLFNLYMSKLEKMQEACGSKSVYDGPEQEEYSTFVIDDPQETYKTLKQVIAGVGALEQEHAQYKRDKFKKTKYGSQEHPIGDKSFQNYIRQQSETSTHSI	binds

Molecular target: BioID2-Gαi1-Q204L (human) (UniProt P63096)
Assay: proximity labelling
Remark: another data set of the same source

Molecule	binding
Vimentin (from UniProt P08670 1-466)	binds
ATF6 (Activating Transcription Factor 6) (from UniProt P18850 1-670)	binds
Cortactin-GFP (from UniProt Q14247 1-550)	binds
Vimentin-GFP (from UniProt P08670 1-466)	binds
c-myc tagged full-length PRG (from UniProt O15085 1-1522)	binds
PDZ-RhoGEF (from UniProt O15085 1-1522)	binds
Ric8A (from UniProt Q9NPQ8 1-531)	binds
